# Hit rate of the full screen: of about 300,000 compounds, about 3,700 (1.2%) were called active. Inconclusive means that the source gave no clear call. Such entries were picked first, then a sample of the others. The call rests on the fitted dose curve; tested in HEK293 cells. Where the call is inconclusive, the potency comes from a doubtful curve fit.
# Assay: qHTS for Inhibitors of binding or entry into cells for Lassa Virus; further: nearly all actives have a fitted effect of over 50% in size
# Settings: Lassa virus pseudotype entry inhibition, cell reporter; series mostly up to 37.9 µM
# Potency means the concentration at half of the fitted maximal effect.
row,SMILES,Potency
1,COc1ccc(OC)c(-c2cc(C(=O)Nc3c(C)nn(Cc4ccccc4C)c3C)no2)c1,"inconclusive: 23.1 µM [inhibitor, partial curve, poor fit]"
2,Cc1cccc(N2CCN(c3ncnc4c3nc3n4CCCCC3)CC2C)c1 (stereo not drawn),"inconclusive: 5.62 µM [inhibitor, full curve, poor fit]"
3,CCOc1ccc(-c2nc(CSCC(=O)NCc3ccc(C)cc3)c(C)o2)cc1,inactive
4,Cc1ccc(/C=C/C(=O)Nc2ccc(Oc3ccccc3)cc2)o1,inactive
5,COc1cc(C(=O)Nc2ccc3c(c2)N(C(=O)CCN(C)C)c2ccccc2CC3)cc(OC)c1OC,"inconclusive: 35.5 µM [inhibitor, single point]"
6,S=C(NCC1CCCO1)NC1CC1 (stereo not drawn),"inconclusive: 6.31 µM [activator, full curve, poor fit]"
7,Cc1nc2ccccn2c1-c1csc(NCc2ccco2)n1,"inconclusive: 18.3 µM [inhibitor, single point]"
8,O=C(CN1CCc2ccccc2C1)Nc1ccccc1F,"inconclusive: 22.4 µM [inhibitor, single point]"
9,CN(C)c1ccc(C(=O)N2CCCC2)cc1,inactive
10,CC1=NN(c2ccccc2)C(=O)/C1=C\c1c(C)[nH]n(-c2ccccc2)c1=O,inactive
11,Cc1ccc(NC(=O)c2cc(Cl)ccc2[N+](=O)[O-])cc1C,inactive
12,Fc1ccc(NC(=S)N/N=C/c2ccc(F)c(F)c2)cc1,"inconclusive: 15.8 µM [inhibitor, partial curve, poor fit]"
13,CC(=O)N1CCN(c2ccc(S(=O)(=O)NCCN(C(C)C)C(C)C)cc2[N+](=O)[O-])CC1,inactive
14,Cc1cccc(Nc2nnc(SCC3CCCCO3)s2)c1C (stereo not drawn),"inconclusive: 8.91 µM [activator, partial curve, poor fit]"
15,CCN1C(=O)c2ccccc2S(=O)(=O)c2ccc(C(=O)NCc3ccc(OC)cc3)cc21,inactive
16,Cc1nn(-c2ccccc2)c(C)c1C(=O)OCC(=O)N1c2ccccc2NC(=O)C1(C)C,"inconclusive: 20 µM [inhibitor, single point]"
17,Cc1ccc(-n2nnnc2SCC(=O)NC2CCCc3ccccc32)c(C)c1 (stereo not drawn),"inconclusive: 28.2 µM [inhibitor, single point]"
18,O=C(CCCN1C(=O)c2cccc3cccc(c23)C1=O)N1CCN(c2ccccc2O)CC1,active: 7.94 µM
19,N#Cc1ccccc1CSc1nnc2ccc3ccccc3n12,inactive
20,COc1ccc(-c2cc(=Nc3ccc(C(=O)O)cc3)c3cc(C)ccc3o2)cc1,"inconclusive: 35.5 µM [inhibitor, single point]"
21,Cc1ccc(Nc2nc(N)nc(CN3CCN(Cc4ccc5c(c4)OCO5)CC3)n2)cc1C,inactive
22,CC(C)(C)C(=O)Nc1nc(C2CCCN2S(=O)(=O)c2ccc(Cl)cc2)cs1 (stereo not drawn),"inconclusive: 12.6 µM [inhibitor, single point]"

row,SMILES,Potency
1,O=C(c1nc2ccccc2s1)N1CCSCC1,"inconclusive: 15.8 µM [activator, single point]"
2,CCN(CC)S(=O)(=O)c1cccc(NC(=O)CC2CCCC2)c1,"inconclusive: 7.94 µM [inhibitor, partial curve, poor fit]"
3,Cc1ccc(NC(=O)NNC(=O)Cn2nc(-c3ccccc3)c(-c3ccccc3)c(C#N)c2=O)cc1,"inconclusive: 7.08 µM [inhibitor, full curve, poor fit]"
4,CC(=O)Oc1ccc2oc(/C=C/N(C)C)c([N+](=O)[O-])c2c1,inactive
5,Cc1ccc2nc(Cl)c(/C=N/NC(=O)[C@H]3C[C@@H]3c3ccccc3)cc2c1,"inconclusive: 0.116 µM [inhibitor, full curve]"
6,CCOC(=O)c1c2c(n(C)c1C)C(=O)C(=O)c1ccc(Br)cc1-2,"inconclusive: 3.16 µM [inhibitor, partial curve, poor fit]"
7,CC1CCCN(C(=O)COc2ccc(-c3ccccc3)cc2)C1 (stereo not drawn),"inconclusive: 12.6 µM [inhibitor, single point]"
8,CCc1ccc2[nH]c(=O)c(CN(Cc3ccc(OC)cc3)Cc3nnnn3CCOC)cc2c1,"inconclusive: 22.4 µM [inhibitor, single point]"
9,Cc1ccc(C(C)C)c(OCCn2c(=O)oc3ccccc32)c1,"inconclusive: 17.8 µM [inhibitor, single point]"
10,Cc1ccc(N=Nc2ccc(O)cc2)c(Br)c1,active: 10 µM
11,CC(=O)c1ccc(NC(=O)c2c(C)nn(-c3ccccc3)c2Cl)cc1,inactive
12,Cc1nc(C)c(-c2nnc(-c3ccc(C(C)(C)C)cc3)o2)cc1C(=O)NN,"inconclusive: 2.24 µM [inhibitor, partial curve, poor fit]"
13,CC1CC2=C(CC1/C=N/NC(N)=S)C(C)(C)CCC2 (stereo not drawn),"inconclusive: 14.1 µM [inhibitor, partial curve, poor fit]"
14,COc1cnn(-c2ccc(C)cc2)c(=O)c1Cl,"inconclusive: 5.62 µM [inhibitor, single point]"
15,COc1cc(OC)cc(-c2cc3nc(C)c(CCC(=O)Nc4ccccc4OC)c(C)n3n2)c1,"inconclusive: 22.4 µM [inhibitor, single point]"
16,O=C(NCC(=O)N1CC=C(c2ccccc2)CC1)c1ccccc1Br,inactive
17,CC1(C)Cc2c(cnn2-c2ccccc2)-c2c1c1ccccc1n2CC(O)CBr (stereo not drawn),"inconclusive: 35.5 µM [inhibitor, single point]"
18,C[C@@H](C(=O)Nc1ccc2ccccc2c1)[C@H]1C[C@]1(C)[C@H](NP(=O)(c1ccccc1)c1ccccc1)c1ccccc1,"inconclusive: 13 µM [inhibitor, partial curve, poor fit]"
19,Cc1ccc(-c2csc(NC(=O)CCNC(=O)c3ccc(Cl)cc3)n2)cc1,"inconclusive: 1.12 µM [inhibitor, full curve, poor fit]"
20,Nc1ncnc2nc(SCc3ccccc3)[nH]c12,"inconclusive: 12.6 µM [inhibitor, partial curve, poor fit]"
21,CCCCOc1ccc(CONS(=O)(=O)c2ccc(NC(C)=O)cc2)cc1Cl,"inconclusive: 1.46 µM [inhibitor, full curve]"

# Pulled one by one from above, 4 records:
row,SMILES,Potency
12,Fc1ccc(NC(=S)N/N=C/c2ccc(F)c(F)c2)cc1,"inconclusive: 15.8 µM [inhibitor, partial curve, poor fit]"
11,Cc1ccc(NC(=O)c2cc(Cl)ccc2[N+](=O)[O-])cc1C,inactive
1,O=C(c1nc2ccccc2s1)N1CCSCC1,"inconclusive: 15.8 µM [activator, single point]"
8,CCc1ccc2[nH]c(=O)c(CN(Cc3ccc(OC)cc3)Cc3nnnn3CCOC)cc2c1,"inconclusive: 22.4 µM [inhibitor, single point]"
